Laboratory results published in publication PMC6212497.
These are yes or no findings as the source states them, for the method shown. Binding seen in cells or lysates may run through a third protein. Some binding calls cover weakened binding; strength is not graded here. For some assays here: Tags and fused reporters may be left off the sequences shown.

Chains of the proteins cited; added tags and fusions are not shown.
UniProt P15311: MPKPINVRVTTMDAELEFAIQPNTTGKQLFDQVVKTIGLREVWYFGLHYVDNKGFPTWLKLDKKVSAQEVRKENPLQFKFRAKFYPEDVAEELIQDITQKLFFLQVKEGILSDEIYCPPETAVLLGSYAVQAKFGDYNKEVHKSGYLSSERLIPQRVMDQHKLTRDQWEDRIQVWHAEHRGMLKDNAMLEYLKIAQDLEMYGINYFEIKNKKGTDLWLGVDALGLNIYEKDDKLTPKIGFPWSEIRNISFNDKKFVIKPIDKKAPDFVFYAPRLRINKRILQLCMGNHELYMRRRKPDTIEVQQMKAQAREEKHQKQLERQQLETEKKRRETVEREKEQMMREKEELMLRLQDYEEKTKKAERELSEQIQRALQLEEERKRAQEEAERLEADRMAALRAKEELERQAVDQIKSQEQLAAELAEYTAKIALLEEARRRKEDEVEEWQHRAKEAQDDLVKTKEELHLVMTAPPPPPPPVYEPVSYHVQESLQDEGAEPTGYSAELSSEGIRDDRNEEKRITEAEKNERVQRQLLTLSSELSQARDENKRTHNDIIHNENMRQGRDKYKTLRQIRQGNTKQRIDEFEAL
UniProt Q8CFI0: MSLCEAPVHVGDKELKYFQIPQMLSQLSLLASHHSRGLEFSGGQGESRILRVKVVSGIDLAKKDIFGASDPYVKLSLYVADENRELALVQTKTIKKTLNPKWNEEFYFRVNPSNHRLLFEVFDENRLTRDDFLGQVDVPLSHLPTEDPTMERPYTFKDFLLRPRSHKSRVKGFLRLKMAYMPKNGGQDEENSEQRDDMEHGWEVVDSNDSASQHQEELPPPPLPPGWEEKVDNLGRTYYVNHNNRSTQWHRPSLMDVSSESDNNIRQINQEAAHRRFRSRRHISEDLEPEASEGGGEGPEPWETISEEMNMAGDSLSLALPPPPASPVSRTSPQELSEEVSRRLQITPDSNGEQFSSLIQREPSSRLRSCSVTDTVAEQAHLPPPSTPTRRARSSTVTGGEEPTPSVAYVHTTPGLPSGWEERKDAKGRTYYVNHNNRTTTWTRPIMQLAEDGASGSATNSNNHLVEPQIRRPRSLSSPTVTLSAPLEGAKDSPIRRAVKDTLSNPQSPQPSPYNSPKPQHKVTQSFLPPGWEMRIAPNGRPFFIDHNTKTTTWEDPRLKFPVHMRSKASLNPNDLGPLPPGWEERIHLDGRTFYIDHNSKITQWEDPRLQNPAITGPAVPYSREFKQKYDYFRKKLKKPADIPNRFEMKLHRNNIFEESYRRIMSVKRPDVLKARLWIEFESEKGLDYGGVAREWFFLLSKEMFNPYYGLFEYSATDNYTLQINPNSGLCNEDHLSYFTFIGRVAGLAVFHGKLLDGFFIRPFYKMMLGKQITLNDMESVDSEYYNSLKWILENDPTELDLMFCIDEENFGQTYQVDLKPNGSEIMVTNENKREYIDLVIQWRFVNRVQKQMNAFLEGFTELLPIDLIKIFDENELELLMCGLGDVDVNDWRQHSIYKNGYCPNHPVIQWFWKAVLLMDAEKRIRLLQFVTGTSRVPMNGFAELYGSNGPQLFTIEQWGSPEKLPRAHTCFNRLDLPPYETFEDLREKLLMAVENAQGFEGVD

Assays:
[1] = molecular target: ezrin (endogenous in HEK293T cells) (human (endogenous in HEK293T)) (UniProt P15311); experiment: co-IP; whole-cell lysates of HEK293T cells transfected with WT Nedd4-2, with or without SGK3-K191M or SGK3-S486D, precipitated with anti-ezrin antibody, blotted with anti-ezrin and anti-Nedd4-2
[2] = molecular target: T1, PC-FLAG (mouse podocalyxin from the PC-Myc-DDK plasmid) (mouse) (UniProt Q9R0M4); experiment: co-IP; whole-cell lysates of PC-FLAG-transfected HEK293T cells (with or without SGK3-K191M, SGK3-S486D, WT Nedd4-2; 24 h) precipitated with anti-FLAG antibody, blotted with anti-FLAG and anti-ezrin
T1 sequence: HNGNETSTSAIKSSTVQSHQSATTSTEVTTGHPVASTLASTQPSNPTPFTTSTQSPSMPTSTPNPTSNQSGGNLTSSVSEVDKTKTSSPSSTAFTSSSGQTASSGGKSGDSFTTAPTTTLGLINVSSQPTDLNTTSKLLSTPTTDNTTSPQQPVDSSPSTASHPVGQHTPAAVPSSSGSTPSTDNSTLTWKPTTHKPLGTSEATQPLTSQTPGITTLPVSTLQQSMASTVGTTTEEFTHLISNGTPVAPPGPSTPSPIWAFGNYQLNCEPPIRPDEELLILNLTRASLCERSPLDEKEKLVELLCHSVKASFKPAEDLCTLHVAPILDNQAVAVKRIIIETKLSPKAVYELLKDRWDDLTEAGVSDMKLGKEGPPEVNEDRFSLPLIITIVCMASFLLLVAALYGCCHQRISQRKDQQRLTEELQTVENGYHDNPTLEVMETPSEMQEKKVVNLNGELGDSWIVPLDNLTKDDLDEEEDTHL

Row | Substance | binding [1] | binding [2]
1 | neural precursor cell expressed developmentally downregulated protein 4 subtype 2 (Nedd4-2), wild type (from UniProt Q8CFI0 1-1004) (enzyme) | binds | 
2 | ezrin (endogenous in HEK293T cells) (from UniProt P15311 1-586) |  | binds
